Reference: patent EP4545090A1 (Universität Leipzig, dated 2025)
Results are given in words; binding and its absence hold for the method and conditions named. Binding seen in cells or lysates may run through a third protein. Some results given as binding are weak or reduced against the parent protein; the word gives no strength.

Target: T1, IFNAR1, mouse, endogenous in heart tissue (mouse) (UniProt P33896)
T1 sequence (looked up): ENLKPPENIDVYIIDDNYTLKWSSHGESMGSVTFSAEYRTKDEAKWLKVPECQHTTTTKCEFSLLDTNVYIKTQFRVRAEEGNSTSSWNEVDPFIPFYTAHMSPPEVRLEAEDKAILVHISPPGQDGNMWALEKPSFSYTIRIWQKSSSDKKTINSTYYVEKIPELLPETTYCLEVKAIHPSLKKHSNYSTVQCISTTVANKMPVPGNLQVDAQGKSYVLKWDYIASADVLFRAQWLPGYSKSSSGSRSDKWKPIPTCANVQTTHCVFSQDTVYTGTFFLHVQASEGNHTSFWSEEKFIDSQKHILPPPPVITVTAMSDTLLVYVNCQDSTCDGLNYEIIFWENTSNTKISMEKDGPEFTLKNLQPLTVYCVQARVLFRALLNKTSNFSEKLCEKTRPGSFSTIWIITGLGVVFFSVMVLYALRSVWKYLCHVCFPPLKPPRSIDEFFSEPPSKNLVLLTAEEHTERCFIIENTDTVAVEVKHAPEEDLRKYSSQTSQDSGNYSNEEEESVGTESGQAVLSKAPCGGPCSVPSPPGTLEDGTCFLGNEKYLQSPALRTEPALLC
Test: TF co-immunoprecipitation from mouse heart lysates, immunoblot

B1: TF, mouse, endogenous in heart tissue (receptor, UniProt P20352 29-294, looked up)
chain: AGIPEKAFNLTWISTDFKTILEWQPKPTNYTYTVQISDRSRNWKNKCFSTTDTECDLTDEIVKDVTWAYEAKVLSVPRRNSVHGDGDQLVIHGEEPPFTNAPKFLPYRDTNLGQPVIQQFEQDGRKLNVVVKDSLTLVRKNGTFLTLRQVFGKDLGYIITYRKGSSTGKKTNITNTNEFSIDVEEGVSYCFFVQAMIFSRKTNQNSPGSSTVCTEQWKSFLGETLIIVGAVVLLATIFIILLSISLCKRRKNRAGQKGKNTPSRLA
- binding: binds
